Drawing on publication PMC7554866, this text covers binding for two substances.

The chains behind the UniProt entries cited, without tags or fusion partners.
UniProt Q04207: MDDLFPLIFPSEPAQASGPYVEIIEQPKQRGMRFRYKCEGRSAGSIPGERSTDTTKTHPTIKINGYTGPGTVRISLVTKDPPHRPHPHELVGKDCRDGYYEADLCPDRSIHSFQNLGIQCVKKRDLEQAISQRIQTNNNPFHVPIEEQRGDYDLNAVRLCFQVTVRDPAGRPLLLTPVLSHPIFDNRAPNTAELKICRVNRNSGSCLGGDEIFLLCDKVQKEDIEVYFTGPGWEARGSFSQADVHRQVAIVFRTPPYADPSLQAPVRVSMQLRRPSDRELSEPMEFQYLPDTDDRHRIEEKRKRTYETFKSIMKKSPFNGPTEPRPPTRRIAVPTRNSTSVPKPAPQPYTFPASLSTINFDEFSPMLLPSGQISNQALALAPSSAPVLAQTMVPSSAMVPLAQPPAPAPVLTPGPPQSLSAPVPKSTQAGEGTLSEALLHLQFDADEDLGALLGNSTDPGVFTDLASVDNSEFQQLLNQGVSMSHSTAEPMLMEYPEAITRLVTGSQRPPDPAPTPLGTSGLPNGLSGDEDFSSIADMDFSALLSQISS
UniProt P42227: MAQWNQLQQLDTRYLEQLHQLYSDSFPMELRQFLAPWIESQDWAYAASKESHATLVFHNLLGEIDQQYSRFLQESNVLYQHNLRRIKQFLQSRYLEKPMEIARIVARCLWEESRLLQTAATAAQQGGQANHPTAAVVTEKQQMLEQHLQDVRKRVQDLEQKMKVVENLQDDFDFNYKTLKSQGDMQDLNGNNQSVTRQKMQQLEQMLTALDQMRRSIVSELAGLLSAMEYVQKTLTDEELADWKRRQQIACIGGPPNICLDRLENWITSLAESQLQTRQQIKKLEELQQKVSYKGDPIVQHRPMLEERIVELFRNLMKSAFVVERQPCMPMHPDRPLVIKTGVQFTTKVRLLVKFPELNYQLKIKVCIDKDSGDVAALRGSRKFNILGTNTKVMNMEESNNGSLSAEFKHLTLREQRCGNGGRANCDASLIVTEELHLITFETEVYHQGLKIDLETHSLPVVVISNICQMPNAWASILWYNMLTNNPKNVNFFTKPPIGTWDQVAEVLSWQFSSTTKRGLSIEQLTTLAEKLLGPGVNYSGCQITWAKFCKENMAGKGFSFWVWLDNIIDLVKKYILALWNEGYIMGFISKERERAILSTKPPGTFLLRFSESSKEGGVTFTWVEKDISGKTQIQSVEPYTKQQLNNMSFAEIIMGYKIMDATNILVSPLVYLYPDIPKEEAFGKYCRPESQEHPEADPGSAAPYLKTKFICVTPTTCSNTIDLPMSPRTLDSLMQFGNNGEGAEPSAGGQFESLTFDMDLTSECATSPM

No constants are given. Whether binding was seen depends on the method and setting. Binding seen in cells or lysates may run through a third protein. Some entries that bind do so weakly or less than the wild type.

Experiment [1] addresses p65 subunit of NF-κB (mouse (endogenous in liver)) (UniProt Q04207). In words: co-IP; immunoprecipitation with anti-p65 (#8242) from liver extracts of WT and PGC-1α KO mice with cerulein-induced pancreatitis, and of sham or cerulein-treated lean and obese mice; Western blot for p-STAT3 (Tyr705).
For experiment [2], the target named is T1, PPARγ co-activator 1α (PGC-1α) (mouse (endogenous in liver)) (UniProt O70343).
T1 sequence: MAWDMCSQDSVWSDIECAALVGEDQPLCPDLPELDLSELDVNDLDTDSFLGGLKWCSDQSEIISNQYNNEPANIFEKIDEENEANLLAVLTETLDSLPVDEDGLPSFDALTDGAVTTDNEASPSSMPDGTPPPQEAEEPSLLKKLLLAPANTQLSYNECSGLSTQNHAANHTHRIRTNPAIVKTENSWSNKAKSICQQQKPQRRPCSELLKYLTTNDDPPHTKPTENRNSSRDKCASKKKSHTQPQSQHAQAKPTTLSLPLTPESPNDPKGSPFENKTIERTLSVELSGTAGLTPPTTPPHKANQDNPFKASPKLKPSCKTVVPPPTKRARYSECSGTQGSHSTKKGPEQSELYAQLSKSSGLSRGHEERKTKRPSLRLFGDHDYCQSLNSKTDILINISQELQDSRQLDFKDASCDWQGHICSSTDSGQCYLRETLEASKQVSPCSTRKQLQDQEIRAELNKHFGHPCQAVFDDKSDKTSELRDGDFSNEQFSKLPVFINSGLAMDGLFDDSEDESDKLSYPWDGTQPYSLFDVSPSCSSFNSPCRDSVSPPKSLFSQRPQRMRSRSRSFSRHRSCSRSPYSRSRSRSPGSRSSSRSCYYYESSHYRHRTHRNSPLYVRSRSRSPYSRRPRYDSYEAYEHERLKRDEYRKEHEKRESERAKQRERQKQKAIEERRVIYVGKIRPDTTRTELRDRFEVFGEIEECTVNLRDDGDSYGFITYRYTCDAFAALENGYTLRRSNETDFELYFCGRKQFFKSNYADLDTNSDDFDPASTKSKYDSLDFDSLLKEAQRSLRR
In words: co-IP; immunoprecipitation with anti-PGC-1α (sc-518025) from liver extracts of sham WT mice and WT mice 1 h after cerulein-induced acute pancreatitis; Western blot for p65.

As to “phospho-STAT3 (Tyr705) (from UniProt P42227 1-770)”, the binding entry in experiment [1] is recorded as “binds”.
Take “p65 subunit of NF-κB (from UniProt Q04207 1-549)”: the binding entry in experiment [2] is reported as “binds”.
